The subject of this assay is P388 leukemia ip, CD2F1 mice, survival T/C. The experiment in a line: NCI In Vivo Anticancer Drug Screen. Data for tumor model P388 Leukemia (intraperitoneal) in CD2F1 (CDF1) mice. Particulars: T/C endpoint: median survival time, higher T/C = longer survival.
Where [1] appears, read: dose: 12.5 mg/kg/injection, schedule: Q01DX009 (ip), vehicle: Klucel (hydroxypropylcellulose) (HPC).
Where [2] appears, read: dose: 25.0 mg/kg/injection, schedule: Q01DX009 (ip), vehicle: Klucel (hydroxypropylcellulose) (HPC).
Where [3] appears, read: dose: 100.0 mg/kg/injection, schedule: Q01DX009 (ip), vehicle: saline with Tween-80.
Setting [4] is: dose: 200.0 mg/kg/injection, schedule: Q01DX009 (ip), vehicle: saline with Tween-80.
Where [5] appears, read: dose: 400.0 mg/kg/injection, schedule: Q01DX001 (ip), vehicle: saline with Tween-80.
The mark [6] stands for this setting: dose: 400.0 mg/kg/injection, schedule: Q01DX001 (ip), vehicle: Klucel (hydroxypropylcellulose) (HPC).
[7] abbreviates: dose: 100.0 mg/kg/injection, schedule: Q01DX009 (ip), vehicle: saline.
[8] abbreviates: dose: 200.0 mg/kg/injection, schedule: Q01DX009 (ip), vehicle: saline.
Where [9] appears, read: dose: 200.0 mg/kg/injection, schedule: Q01DX005 (ip), vehicle: saline with Tween-80.

The list shows only some results of the screen, not a fair sample: it gathers tests that were run many times, whatever their T/C, doses with no T/C, and many T/C values between a quarter and a half above the control. Other doses and runs of a compound stand elsewhere. T/C: endpoint of the treated group in % of that of the vehicle group. Some entries give survivors of the animals treated and no T/C: the source files T/C as zero there, which appears to mark a toxic dose or a test without result, not a measured value. Some doses without a T/C left all or most animals alive at the check, yet need not have been tolerated: survival well below the control is almost never listed, so the zero probably covers shortened survival too. Survivors were counted at the toxicity check, usually on the fifth day, unless a day is given; later deaths do not show. Schedule codes are those of the source, read here as Q, the interval in days (D) or hours (H), X, the number of doses. For survival time, this PubChem deposit counts one and a half times the control or more as active, and values a quarter to a half above the control carry no call in these data; other NCI protocols may use other cut-offs. Brackets with × count equal records among those shown. Some entries hold several experiments; their values stand side by side, smallest first.

For `CN(C)CCNc1ccc(O)c2c1C(=O)c1ccccc1C2=O`, where the note is “dose: 80.0 mg/kg/injection, schedule: Q01DX009 (ip), vehicle: distilled water + Tween-80”, the T/C is 135 % of control. For the same compound, under “dose: 320.0 mg/kg/injection, schedule: Q01DX009 (ip), vehicle: distilled water + Tween-80”, the survivor count was 6 of 6.

On to `Cc1nc(Br)c(Br)n1C`, for which the survivor count (dose: 240.0 mg/kg/injection, schedule: Q01DX005 (ip), vehicle: saline with Tween-80) is given as 0 of 6.

For the compound `CCOC(=O)C(C)(C(=O)OCC)n1cnc2c1c(=O)n(C)c(=O)n2C`, the survivor count reads like this: (dose: 6.25 mg/kg/injection, schedule: Q01DX009 (ip), vehicle: Klucel (hydroxypropylcellulose) (HPC)) 6 of 6; under setting [1], 6 of 6; under setting [2], 6 of 6.

For the compound `C=CCSc1nc2ccc(NCn3c(=S)sc4cc([N+](=O)[O-])ccc43)cc2s1`, the survivor count (dose: 400.0 mg/kg/injection, schedule: Q04DX003 (ip), vehicle: Klucel (hydroxypropylcellulose) (HPC)) is listed as 0 of 6.

As for `CCOC1OCN(c2ccc(Cl)cc2)CC1(C)C` (configuration not stated), the T/C by setting is: under setting [3], 133 % of control; under setting [4], 136 % of control.

As to `CCCn1c(CC)nc([N+](=O)[O-])c1Sc1ncn[nH]1`, the T/C was 127 % of control (dose: 50.0 mg/kg/injection, schedule: Q01DX005 (ip), vehicle: Klucel (hydroxypropylcellulose) (HPC)); 126 and 136 % of control (dose: 100.0 mg/kg/injection, schedule: Q01DX005 (ip), vehicle: Klucel (hydroxypropylcellulose) (HPC)). Besides, the survivor count (dose: 200.0 mg/kg/injection, schedule: Q01DX005 (ip), vehicle: Klucel (hydroxypropylcellulose) (HPC)) was 3 of 5.

Regarding `C=C1C(=O)OC2/C=C(\C)C(OC(C)=O)C3OC3C(C)(O)CC(OC(=O)/C(C)=C/C)C12` (configuration not stated), the survivor count (dose: 80.0 mg/kg/injection, schedule: Q01DX009 (ip), vehicle: saline with Tween-80) is given as 5 of 6.

In the case of `Nc1ncnc2ccccc12`, where the note is “dose: 200.0 mg/kg/injection, schedule: Q01DX009 (ip), vehicle: Klucel (hydroxypropylcellulose) (HPC)”, the survivor count is recorded as 3 of 6.

Take `c1ccc(CCN2CCC3(CC2)COCc2ccccc23)cc1`: the survivor count by setting is: (dose: 200.0 mg/kg/injection, schedule: Q01DX001 (ip), vehicle: saline with Tween-80) 0 of 6; under setting [5], 0 of 6.

For `COc1ccc(OC)c(C(/C=N/O)OC)c1` (configuration not stated), the survivor count (dose: 400.0 mg/kg/injection, schedule: Q04DX003 (ip), vehicle: saline with Tween-80) is 6 of 6.

Take `O=C(COc1nccc2nc(-c3ccccc3)cn12)c1ccccc1`: the survivor count under setting [1] was 6 of 6; the survivor count under setting [2] is given as 6 of 6; the survivor count (dose: 100.0 mg/kg/injection, schedule: Q01DX001 (ip), vehicle: Klucel (hydroxypropylcellulose) (HPC)) is given as 3 of 6; the survivor count (dose: 200.0 mg/kg/injection, schedule: Q01DX001 (ip), vehicle: Klucel (hydroxypropylcellulose) (HPC)) is 0 of 6; the survivor count under setting [6] is reported as 0 of 6.

As for `Cc1nc(C(=O)NO)c2ccccc2n1`, the survivor count under setting [3] is given as 6 of 6.

For `COC(=O)C(Br)C(Br)c1ccccc1` (configuration not stated), the T/C (dose: 50.0 mg/kg/injection, schedule: Q01DX009 (ip), vehicle: saline) is 127 % of control; the T/C under setting [7] is 129 % of control; the T/C under setting [8] is 132 % of control.

Turning to `CC(OC1OC(C(=O)O)C(O)C(O)C1O)c1ccccc1` (configuration not stated), the survivor count (dose: 100.0 mg/kg/injection, schedule: Q01DX009 (ip), vehicle: saline sonified) was 6 of 6.

Take `COc1cccc([N+]([O-])=NC#N)c1`: the survivor count by setting is: (dose: 100.0 mg/kg/injection, schedule: Q04DX003 (ip), vehicle: Klucel (hydroxypropylcellulose) (HPC)) 0 of 6; (dose: 200.0 mg/kg/injection, schedule: Q04DX003 (ip), vehicle: Klucel (hydroxypropylcellulose) (HPC)) 0 of 6.

Consider `CCCCCCC(=O)CC(SCCS)c1ccc(Cl)c(Cl)c1` (configuration not stated), for which, under setting [8], the survivor count is 5 of 6.

Regarding `O=C1C=CC(=O)C(Sc2cccc3ccccc23)=C1`, the survivor count (dose: 25.0 mg/kg/injection, schedule: Q01DX005 (ip), vehicle: Klucel (hydroxypropylcellulose) (HPC)) is recorded as 6 of 6.

As to `Cc1cn(CC2C=CC(CS[As](C)C)O2)c(=O)[nH]c1=O` (configuration not stated), the survivor count (dose: 200.0 mg/kg/injection, schedule: Q01DX009 (ip), vehicle: distilled water + Tween-80) is listed as 2 of 6.

As for `Clc1cc2c(nn1)Nc1ccccc1S2`, the survivor count under setting [3] is 6 of 6.

On to `Oc1cc2ccccc2c(-c2c(O)c(O)cc3ccccc23)c1O`, for which the survivor count under setting [9] is given as 0 of 6. In addition, the T/C under setting [5] is 125 and 126 % of control.

In the case of `CCOc1ccc2nc3cc(N=Nc4ccc5c(N)c6cc(OCC)ccc6nc5c4)ccc3c(N)c2c1`, the T/C is, setting by setting: (dose: 50.0 mg/kg/injection, schedule: Q01DX009 (ip), vehicle: saline with Tween-80) 128 % of control; under setting [3], 135 % of control; under setting [4], 129 % of control (2×).

Take `CC(C)CN(CC(C)C)CN(CC(C)C)CC(C)C`: the survivor count under setting [9] is given as 0 of 6.

For the compound `c1ccc(-n2ccnc2C2C3CCN2CC3)cc1` (configuration not stated), the survivor count runs as follows: under setting [7], 3 of 6; under setting [8], 0 of 6.

In the case of `c1ccc(CN2CCC3(CC2)CO3)cc1`, under setting [6], the survivor count is recorded as 0 of 6.

The record behind these values is PubChem BioAssay AID330 (DTP/NCI, 2004).
